{
  "sequences": {"note": "Amino acid sequences for entries named in this document (tags omitted).", "UniProt Q13257": "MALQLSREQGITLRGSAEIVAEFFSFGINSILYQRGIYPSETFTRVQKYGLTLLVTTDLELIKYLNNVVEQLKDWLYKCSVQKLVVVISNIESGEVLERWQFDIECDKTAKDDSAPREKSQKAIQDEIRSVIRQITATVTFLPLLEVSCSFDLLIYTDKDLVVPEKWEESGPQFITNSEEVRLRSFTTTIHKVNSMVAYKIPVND"},
  "source": "paper PMC4636321",
  "assay_in_all_cases": "co-IP; FLAG-tagged p31^comet (wild type or deletion mutant) and Myc-tagged Mad2 co-transfected; NP-40 lysis buffer; lysates immunoprecipitated with anti-FLAG antibody (M2), immunoprecipitates probed with anti-Myc antibody",
  "key": {"[1]": {"molecular_target": "T1, FLAG-tagged wild-type p31^comet (human) (UniProt Q15013)", "T1 sequence": "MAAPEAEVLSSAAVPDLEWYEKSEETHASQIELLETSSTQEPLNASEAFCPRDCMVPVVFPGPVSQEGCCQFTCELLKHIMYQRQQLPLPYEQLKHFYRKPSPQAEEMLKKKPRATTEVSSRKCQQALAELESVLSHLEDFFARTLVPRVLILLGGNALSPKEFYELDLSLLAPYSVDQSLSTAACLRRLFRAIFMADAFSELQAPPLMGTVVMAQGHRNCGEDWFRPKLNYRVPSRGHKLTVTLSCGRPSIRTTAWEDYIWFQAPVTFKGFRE"}, "[2]": {"molecular_target": "T2, FLAG-tagged p31ΔN54 (human) (UniProt Q15013)", "T2 sequence": "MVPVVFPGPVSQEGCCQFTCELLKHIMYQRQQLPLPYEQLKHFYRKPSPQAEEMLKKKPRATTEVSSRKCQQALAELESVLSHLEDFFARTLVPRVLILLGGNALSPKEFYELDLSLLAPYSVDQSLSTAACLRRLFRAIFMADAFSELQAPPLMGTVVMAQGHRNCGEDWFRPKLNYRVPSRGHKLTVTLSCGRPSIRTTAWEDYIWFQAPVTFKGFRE"}, "[3]": {"molecular_target": "T3, FLAG-tagged p31ΔC30 (human) (UniProt Q15013)", "T3 sequence": "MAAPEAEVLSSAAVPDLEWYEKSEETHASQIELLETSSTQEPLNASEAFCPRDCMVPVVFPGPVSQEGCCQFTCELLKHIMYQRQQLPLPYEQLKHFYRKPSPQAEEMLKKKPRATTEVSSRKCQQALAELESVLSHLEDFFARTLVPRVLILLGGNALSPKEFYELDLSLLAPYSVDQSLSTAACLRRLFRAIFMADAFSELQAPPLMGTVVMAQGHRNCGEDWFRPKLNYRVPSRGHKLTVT"}},
  "note": "These are yes or no findings as the source states them, for the method shown. In cells and extracts the contact can be indirect. Some binding calls cover weakened binding; strength is not graded here. Tags and fused reporters may be left off the sequences shown.",
  "data": [
    {"substance": "Myc-tagged Mad2 (from UniProt Q13257 1-205)", "values": [
      {"measurement": "binding", "setting": "[1]", "result": "binds"},
      {"measurement": "binding", "setting": "[2]", "result": "binds"},
      {"measurement": "binding", "setting": "[3]", "result": "no binding"}
    ]}
  ]
}
